Assay results as given in paper PMC10367561.
Results are given in words; binding and its absence hold for the method and conditions named. In cells and extracts the contact can be indirect. Some binding calls cover weakened binding; strength is not graded here. For some assays here: Tags and fused reporters may be left off the sequences shown. One block for each molecule: values may come before it.

Protein sequences, listed by entry. Tags and fused reporters are not part of them. Lines headed by an entry give the natural chain unless they say otherwise; changes in a name come on top.
UniProt Q9HAU4: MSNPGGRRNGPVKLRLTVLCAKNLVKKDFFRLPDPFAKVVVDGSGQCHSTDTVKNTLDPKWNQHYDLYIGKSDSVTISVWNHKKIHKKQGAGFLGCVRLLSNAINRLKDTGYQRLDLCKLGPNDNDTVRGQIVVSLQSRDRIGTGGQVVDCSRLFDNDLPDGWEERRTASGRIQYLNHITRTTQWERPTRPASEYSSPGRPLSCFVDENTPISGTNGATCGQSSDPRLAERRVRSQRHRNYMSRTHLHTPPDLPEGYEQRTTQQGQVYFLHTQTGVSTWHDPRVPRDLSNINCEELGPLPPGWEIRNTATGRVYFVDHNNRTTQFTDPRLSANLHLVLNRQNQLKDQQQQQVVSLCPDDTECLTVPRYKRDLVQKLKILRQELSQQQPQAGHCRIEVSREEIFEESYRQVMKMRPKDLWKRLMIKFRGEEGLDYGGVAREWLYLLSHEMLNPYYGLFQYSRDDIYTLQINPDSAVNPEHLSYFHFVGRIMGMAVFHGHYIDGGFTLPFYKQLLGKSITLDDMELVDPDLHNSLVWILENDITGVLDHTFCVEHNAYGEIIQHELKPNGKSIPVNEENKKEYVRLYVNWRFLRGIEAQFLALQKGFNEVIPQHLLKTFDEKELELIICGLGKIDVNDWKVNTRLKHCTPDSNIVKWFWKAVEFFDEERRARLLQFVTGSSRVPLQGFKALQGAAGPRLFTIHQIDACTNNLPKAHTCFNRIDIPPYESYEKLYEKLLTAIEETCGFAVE
UniProt P15923: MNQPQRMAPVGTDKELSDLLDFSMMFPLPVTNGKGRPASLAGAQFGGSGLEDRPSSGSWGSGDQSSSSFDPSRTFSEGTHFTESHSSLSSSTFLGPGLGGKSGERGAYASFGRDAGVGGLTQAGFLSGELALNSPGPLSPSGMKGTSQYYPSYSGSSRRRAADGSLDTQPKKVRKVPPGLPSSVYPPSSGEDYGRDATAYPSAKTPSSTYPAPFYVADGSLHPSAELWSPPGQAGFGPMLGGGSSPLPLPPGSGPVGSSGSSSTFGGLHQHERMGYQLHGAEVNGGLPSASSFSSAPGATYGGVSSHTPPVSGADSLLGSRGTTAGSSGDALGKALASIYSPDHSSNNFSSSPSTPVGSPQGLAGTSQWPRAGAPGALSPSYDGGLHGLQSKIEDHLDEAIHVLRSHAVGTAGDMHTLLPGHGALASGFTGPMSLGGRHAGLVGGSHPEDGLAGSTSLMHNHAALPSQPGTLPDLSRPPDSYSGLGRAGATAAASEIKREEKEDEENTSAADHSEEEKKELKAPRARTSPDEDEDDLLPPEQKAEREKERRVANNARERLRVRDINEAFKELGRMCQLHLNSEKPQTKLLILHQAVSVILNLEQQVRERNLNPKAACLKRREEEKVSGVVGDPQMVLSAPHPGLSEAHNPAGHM

Assays:
[1] = biological target: T1, GFP-tagged full-length human ID2 (inhibitor of DNA binding 2) (human) (UniProt Q02363); assay: co-IP; cells co-transfected with Flag-SMURF2 (or its truncated fragments) and ID2 (GFP-ID2) plasmids, HEK293T and A549; IP with anti-Flag or anti-ID2 antibody; IP lysis buffer 0.025 M Tris, 0.15 M NaCl, 0.001 M EDTA, 1% NP-40, 5% glycerol; overnight at 4°C; western blot
T1 sequence: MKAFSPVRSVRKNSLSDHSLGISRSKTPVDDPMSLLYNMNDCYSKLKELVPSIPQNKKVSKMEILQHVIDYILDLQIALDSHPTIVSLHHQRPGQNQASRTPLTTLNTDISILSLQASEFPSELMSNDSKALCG

[2] = biological target: T2, ID2, endogenous (human (endogenous in A549 and H460)) (UniProt Q02363); assay: co-IP; endogenous proteins, A549 and H460 cells; IP and western blot; the precipitating antibody is not given
T2 sequence: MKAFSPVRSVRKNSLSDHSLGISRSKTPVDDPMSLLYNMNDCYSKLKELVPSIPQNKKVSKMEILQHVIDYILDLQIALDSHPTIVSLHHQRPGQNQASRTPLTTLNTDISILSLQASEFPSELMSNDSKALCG

[3] = biological target: T2, ID2, endogenous (human (endogenous in A549 and H460)); assay: co-IP; endogenous proteins, A549 cells; IP with anti-SMURF2 or anti-ID2 antibody; western blot
[4] = biological target: T2, ID2, endogenous (human (endogenous in A549 and H460)); assay: proximity ligation; Duolink In situ Red kit, A549 cells; anti-SMURF2 (rabbit) and anti-ID2 (mouse); signal means a distance smaller than 40 nm
[5] = biological target: Flag-tagged SMURF2 (SMAD specific E3 ubiquitin protein ligase 2) (human) (UniProt Q9HAU4); assay: co-IP; cells co-transfected with Flag-SMURF2 (or its truncated fragments) and ID2 (GFP-ID2) plasmids, HEK293T and A549; IP with anti-Flag or anti-ID2 antibody; IP lysis buffer 0.025 M Tris, 0.15 M NaCl, 0.001 M EDTA, 1% NP-40, 5% glycerol; overnight at 4°C; western blot
[6] = biological target: HECT domain of SMURF2 (Flag-tagged truncated fragment) (human) (UniProt Q9HAU4); assay: as above
[7] = biological target: SMURF2, endogenous (human (endogenous in A549)) (UniProt Q9HAU4); assay: co-IP; endogenous proteins, A549 cells; IP with anti-SMURF2 or anti-ID2 antibody; western blot

Molecule: HECT domain of SMURF2 (Flag-tagged truncated fragment) (from UniProt Q9HAU4 366-748) (domain or fragment)
binding [1]: binds

Molecule: Flag-tagged SMURF2 (SMAD specific E3 ubiquitin protein ligase 2) (from UniProt Q9HAU4 1-748) (enzyme)
binding [1]: binds

B1: GFP-tagged full-length human ID2 (inhibitor of DNA binding 2) (protein, UniProt Q02363 1-134)
chain: MKAFSPVRSVRKNSLSDHSLGISRSKTPVDDPMSLLYNMNDCYSKLKELVPSIPQNKKVSKMEILQHVIDYILDLQIALDSHPTIVSLHHQRPGQNQASRTPLTTLNTDISILSLQASEFPSELMSNDSKALCG
binding [5]: binds | binding [6]: binds

The remaining lines, values ahead:

binding [2]: binds
Molecule: E2A, endogenous (from UniProt P15923 1-654)

binding [3]: binds | binding [4]: binds
Molecule: SMURF2, endogenous (from UniProt Q9HAU4 1-748) (enzyme)

binding [7]: binds
B2: ID2, endogenous (protein, UniProt Q02363 1-134)
chain: MKAFSPVRSVRKNSLSDHSLGISRSKTPVDDPMSLLYNMNDCYSKLKELVPSIPQNKKVSKMEILQHVIDYILDLQIALDSHPTIVSLHHQRPGQNQASRTPLTTLNTDISILSLQASEFPSELMSNDSKALCG
